Some results were stated once for a whole list of compounds, not compound by compound.
Tested on: mosquito
Test: Mosquito repelling efficacy of lemongrass accord chemicals
Format: in vivo
Conditions: chemicals of the lemongrass accord

Compound	mosquito repelling efficacy (duration)
CC(C)=CCC/C(C)=C/CO [geraniol]	over 2 hours
pinene	over 2 hours
CC(C)=CCCC(C)=CCCC(C)=CCO [farnesol]	over 2 hours
CC(=O)OC/C=C(\C)CCC=C(C)C [geranyl acetate]	over 2 hours
CC(C)=CCCC(C)CC=O (stereo not shown) [citronellal]	over 2 hours
C=CC(=C)CCC=C(C)C [beta-myrcene]	over 2 hours
CC1(C)C2CCC1(C)C(O)C2 (stereo not shown) [borneol]	over 2 hours

From patent US11246310B2, “Insect repelling composition” (priority 2019, dated 2022)
